## Library screen at single concentrations

Sequences of proteins named here, by UniProt entry; tags and fusion partners are left off.
UniProt P9WPC5, whole entry: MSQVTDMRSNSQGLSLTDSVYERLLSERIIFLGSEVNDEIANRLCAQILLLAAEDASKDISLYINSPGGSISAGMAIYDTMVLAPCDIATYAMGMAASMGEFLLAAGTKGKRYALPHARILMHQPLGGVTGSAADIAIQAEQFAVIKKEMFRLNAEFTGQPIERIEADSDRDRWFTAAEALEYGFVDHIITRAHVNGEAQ
UniProt P9WPC3, whole entry partner: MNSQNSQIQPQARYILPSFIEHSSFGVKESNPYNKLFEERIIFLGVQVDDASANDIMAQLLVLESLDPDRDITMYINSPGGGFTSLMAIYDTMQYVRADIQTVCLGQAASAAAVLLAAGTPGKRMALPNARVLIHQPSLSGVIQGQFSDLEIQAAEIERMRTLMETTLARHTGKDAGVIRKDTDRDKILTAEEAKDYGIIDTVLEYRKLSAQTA

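Protease assay of ClpP1P2, read by the AMC dye that it sets free. Target: ClpP1P2, Mycobacterium tuberculosis (UniProt P9WPC5 and UniProt P9WPC3). Compounds at 50 µM. Direction is inferred from only a few compounds that gave an IC50; most scored high, so higher reads as stronger inhibition. Most other retested compounds had strongly negative values. Of about 69,000 compounds tested this way, about 10 (0.015%) reached 50% or more in at least one test.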

Results are given as percent effect. How 0% and 100% were set is not recorded. Most values in the screen are low, and negative values occur. Compounds were drawn at random from those tested, without regard to their results.

With O=C(NCCCc1ccc(F)cc1)c1ccc(N2CCOCC2)cc1 the screen gave -15.26%.
With COc1ccc2c(c1)NC(=O)C2OC(=O)CC(C)(C)C (stereo not shown) the screen gave 2.163%.
With O=C(c1cnc(Nc2ccccc2)nc1)N1CCC(O)(CO)CC1 the screen gave -9.309%.
With COc1ccc(CN(C)[C@@H]2CN(C(=O)c3cncs3)C[C@H]2O)cc1 the screen gave -0.4329%.
With COc1ccc2c(c1)OCC(CNC(=O)NC(C)(C)C)C2 (stereo not shown) the screen gave -0.8322%.
With CCOc1ccc(C(=O)N2C[C@H]3CC[C@@H]2CN(C)C3)cc1OCC the screen gave -2.197%.
With O=C1NCc2ccccc2CC12CCCN(CCCc1ccccc1)C2 (stereo not shown) the screen gave -11.04%.
With CN(Cc1ccccc1)c1ncccc1CNC1CCCC1 the screen gave -11.31%.
With CCN1CC(=O)c2sc(NC(C)C)nc2C1 the screen gave -0.4977%.
With CCc1c(C)nc2cc(C3CCN(Cc4ccccc4F)C3)nn2c1O (stereo not shown) the screen gave -4.401%.
With CCn1nc(C)c(NC(=O)CN2CCC(c3ccccc3Cl)C2)c1C (stereo not shown) the screen gave -1.026%.
With Cc1nccc(CN2CC[C@H](Oc3cccc(F)c3)[C@@](C)(O)C2)n1 the screen gave 3.128%.
With CCC(Nc1cccc(OC)c1)C(=O)NCc1ccc2[nH]c(=O)[nH]c2c1 (stereo not shown) the screen gave 9.958%.
With CC1CCCCN1CCNC(=O)NCc1ccc(C#N)cc1F (stereo not shown) the screen gave 7.798%.
With Cc1cc(-c2cc(N)c(=O)n(CC(=O)N3CCCC(C)C3)n2)c(C)o1 (stereo not shown) the screen gave -0.6164%.
With Cc1cccnc1C(=O)N1CCCC(Cc2cncc3ccccc23)C1 (stereo not shown) the screen gave 10.4%.
With COc1cc2c(cc1CN1C[C@@H](CN3CCOCC3)[C@@H](CO)C1)CCC2 the screen gave -9.943%.
With CNC(=O)c1cn2cc(-c3ccccc3Cl)n(CC=C(C)C)c(=O)c2n1 the screen gave 14.16%.
With O=C(CNC(=O)N1CCc2c([nH]c3ccc(Cl)cc23)C1)N1CCOCC1 the screen gave 9.977%.
With O=C(c1ccn(-c2ccccc2Cl)n1)N1CCCSCC1 the screen gave -6.928%.
With Cc1ccc(C(=O)N2CCC3(CC(N(C)c4ccncn4)C3)C2)cn1 (stereo not shown) the screen gave -10.06%.
With O=S(=O)(c1cccc(F)c1)N1CCCCC1c1ccn[nH]1 (stereo not shown) the screen gave -6.028%.
With CCS(=O)(=O)N1CCOC2(CCCN(c3cccc(C#N)c3)C2)C1 (stereo not shown) the screen gave 2.92%.
With COc1cccc(OC2CN(C(=O)CCn3cnnn3)C2)c1 the screen gave -4.875%.
With CC1CN(C(=O)Nc2cc(C(F)(F)F)c[nH]c2=O)CCO1 (stereo not shown) the screen gave 12.24%.
With O=c1ccc(-c2cccs2)nn1CN1CCN(C2CCS(=O)(=O)C2)CC1 (stereo not shown) the screen gave -6.015%.
With CCN1C(=O)CC(c2cnn(C)c2)C12CCN(C(=O)c1ccc[nH]1)CC2 (stereo not shown) the screen gave -0.02083%.
With Cc1nc(CN2CCN(C(=O)NC(C)Cn3ccnc3)CC2)cs1 (stereo not shown) the screen gave -6.549%.
With O=C(c1ccco1)N1C[C@@H]2OCCN(CCN3CCCC3)[C@@H]2C1 the screen gave 8.229%.
With COCC(=O)N1CCCC2(CCN(CCN3CCCC3)CC2)C1 the screen gave -1.379%.
With COCc1cccc(NC(C(N)=O)c2ccc(Br)cc2)c1 (stereo not shown) the screen gave 3.265%.
With CC(CO)(NC(=O)Nc1nncs1)C1CCCCC1 (stereo not shown) the screen gave 2.082%.
With CCc1nc(CCNC(=O)Nc2ccc(C(=O)NC)cc2)cs1 the screen gave -3.89%.
With O=C(CC1CCCC1)N1CCC2(CCN2Cc2ccc(F)cc2)C1 (stereo not shown) the screen gave -4.313%.
With CCC(C)(COc1ncccc1Cl)NCC(=O)NCC(C)C (stereo not shown) the screen gave 4.722%.
With O=C(NCCOc1ncc(Cl)cc1Cl)c1ccoc1 the screen gave -14.81%.
With CC(C)NC[C@H]1COCc2nc3cccnc3n21 the screen gave -16.01%.
With COc1cc(CNCC(O)c2ccc(F)cc2F)cc2c1OCO2 (stereo not shown) the screen gave -12.53%.
With CCc1nc2c(c(C)c(C)n2Cc2cccnc2)c(N)c1C the screen gave 2.735%.
With COC(=O)CCC(=O)N1CCC2(CN(Cc3ccccc3)C2)C1 the screen gave -4.94%.
With NC(=O)c1cnn2c1NCC(CNCCc1ccco1)C2 (stereo not shown) the screen gave -0.9759%.
With COCCCNc1c(C#N)c2c(c3nncn13)CN(C)CC2 the screen gave -2.691%.
With CN1CCCn2c(nc(CNC(=O)c3ccsc3)cc2=O)C1 the screen gave -9.873%.
With CN1CCC(c2n[nH]c(=O)n2CC2CCCCC2)CC1 the screen gave 7.721%.
With O=C(c1cnccn1)N1CCOC2(CCN(Cc3ccsc3)CC2)C1 the screen gave -0.966%.
With CN(Cc1ccoc1)C(=O)Cn1ncc(N(C)C)cc1=O the screen gave -14.52%.
With CC(CCNC(=O)NCCc1ccncc1)c1ccccc1 (stereo not shown) the screen gave -6.668%.
With CC(C)Cc1cc(CC2(NCc3ccco3)COC2)no1 the screen gave -12.99%.
With Cn1cccc1C(=O)N1CCN(Cc2ccncc2)c2ncccc2C1 the screen gave 6.766%.
With CCS(=O)(=O)N1C[C@@H]2CN(Cc3cccs3)CCO[C@@H]2C1 the screen gave -5.971%.
With CN(C)c1cc(CNC(=O)c2ccc(=O)[nH]n2)ccn1 the screen gave 13.84%.
With Cc1ccc(C#N)c(N2CCCC(c3nccn3Cc3cscn3)C2)n1 (stereo not shown) the screen gave -11.94%.
With Cc1ccccc1CN1CCCN(S(=O)(=O)N(C)C2CCCCC2)CC1 the screen gave -3.417%.

For reference, 4 entries once more:

Result for O=C(c1cnccn1)N1CCOC2(CCN(Cc3ccsc3)CC2)C1 was -0.966%.
Result for CCOc1ccc(C(=O)N2C[C@H]3CC[C@@H]2CN(C)C3)cc1OCC was -2.197%.
Result for COCc1cccc(NC(C(N)=O)c2ccc(Br)cc2)c1 (stereo not shown) was 3.265%.
Result for CC(CO)(NC(=O)Nc1nncs1)C1CCCCC1 (stereo not shown) was 2.082%.

Data taken from ChEMBL document CHEMBL3988442, “University of Dundee, Small-Polar-MMV Screening Library” (2021).